Data source: PubChem BioAssay AID1259308 (NCATS, 2017)
Screen: 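Genes whose loss raises luciferase production in HEK293 cells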 (primary screen). Cells: human HEK293 embryonic kidney cells stably expressing firefly luciferase (HEK-CMV-Luc2-Hygro). Reagent: single siRNA against human genes, 0.8 pmol siRNA per well. Timing: 72 h. Read-out: 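Reporter luminescence and viable-cell signal on separate replicate plates, given as percent of non-targeting control and median/MAD z-scores, plus per-cell luciferase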. Scale: total luciferase, z-score: higher = more reporter protein produced. Call rule: 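An siRNA counts as active if its total luciferase robust z-score exceeds 3; genes with two or more such siRNAs out of three were retested with fresh siRNAs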. Meaning of the calls: active = raised luciferase; inactive = no rise.
The whole screen tested about 59,000 reagents; below is a part drawn at random. About 1,510 of them (2.6%) count as active. 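Calls use total luciferase alone and ignore viability, so some active siRNAs may act by altering cell number.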 Not all columns of the deposit are shown.

gene knocked down	PubChem SID	total luciferase, z-score	Outcome
PPP2R3C	SID160742741	-0.122	inactive
PPP2R3C	SID160742742	0.454	inactive
PPP2R3C	SID160742743	-1.68	inactive
STX3	SID160717502	-0.538	inactive
STX3	SID160717503	-1.82	inactive
STX3	SID160717504	-1.42	inactive
SCML4	SID160762441	1.03	inactive
SCML4	SID160762442	-1.63	inactive
SCML4	SID160762443	3.02	active
RPL36AP31	SID160733762	-0.0807	inactive
RPL36AP31	SID160768540	0.595	inactive
RPL36AP31	SID160768541	1.19	inactive
INKA1	SID160725220	0.899	inactive
INKA1	SID160725222	0.597	inactive
INKA1	SID160725223	-1.59	inactive
RPS12P9	SID160771385	-0.306	inactive
RPS12P9	SID160771386	0.603	inactive
RPS12P9	SID160771387	0.3	inactive
EIPR1	SID160718404	-0.432	inactive
EIPR1	SID160718405	3.05	active
EIPR1	SID160718406	-1.19	inactive
DACT2	SID160732623	-0.182	inactive
DACT2	SID160760281	0.0852	inactive
DACT2	SID160760282	-0.175	inactive
ZNF343	SID160748755	1.4	inactive
ZNF343	SID160748756	0.773	inactive
ZNF343	SID160748757	0.198	inactive
PPP1R14D	SID160731475	-0.219	inactive
PPP1R14D	SID160742356	2.39	inactive
PPP1R14D	SID160742357	-0.941	inactive
P2RX1	SID160778483	0.18	inactive
P2RX1	SID160778485	1.01	inactive
P2RX1	SID160778486	-0.22	inactive

Sorted by “total luciferase, z-score” (descending): some entries from above
gene knocked down	PubChem SID	total luciferase, z-score	Outcome
PPP1R14D	SID160742356	2.39	inactive
ZNF343	SID160748756	0.773	inactive
ZNF343	SID160748757	0.198	inactive
PPP1R14D	SID160731475	-0.219	inactive
PPP1R14D	SID160742357	-0.941	inactive

Continued.
gene knocked down	PubChem SID	total luciferase, z-score	Outcome
LRTOMT	SID160732693	0.822	inactive
LRTOMT	SID160761486	1.61	inactive
LRTOMT	SID160761487	-0.229	inactive
IMMP1L	SID160760582	0.198	inactive
IMMP1L	SID160760584	0.965	inactive
IMMP1L	SID160760585	-2.11	inactive
LYPD8	SID160769959	1.22	inactive
LYPD8	SID160769960	-0.0236	inactive
LYPD8	SID160769961	-1.44	inactive
DEFB123	SID160732789	0.0095	inactive
DEFB123	SID160761973	-0.427	inactive
DEFB123	SID160761974	0.057	inactive
SCAF11	SID160721636	0.378	inactive
SCAF11	SID160721637	0.22	inactive
SCAF11	SID160721638	-1.31	inactive
TMEM106A	SID160732337	1.94	inactive
TMEM106A	SID160754827	-2.49	inactive
TMEM106A	SID160754828	0.657	inactive
FIGLA	SID160764746	-0.281	inactive
FIGLA	SID160764747	0.341	inactive
FIGLA	SID160764749	1.56	inactive
BRICD5	SID160732943	0.701	inactive
BRICD5	SID160732944	0.568	inactive
BRICD5	SID160763068	-0.248	inactive
